# Library screen at single concentrations

By UniProt entry, the sequences of proteins in these tests, tags left out. Residues count along the entry.
UniProt Q4DA54, 1-478: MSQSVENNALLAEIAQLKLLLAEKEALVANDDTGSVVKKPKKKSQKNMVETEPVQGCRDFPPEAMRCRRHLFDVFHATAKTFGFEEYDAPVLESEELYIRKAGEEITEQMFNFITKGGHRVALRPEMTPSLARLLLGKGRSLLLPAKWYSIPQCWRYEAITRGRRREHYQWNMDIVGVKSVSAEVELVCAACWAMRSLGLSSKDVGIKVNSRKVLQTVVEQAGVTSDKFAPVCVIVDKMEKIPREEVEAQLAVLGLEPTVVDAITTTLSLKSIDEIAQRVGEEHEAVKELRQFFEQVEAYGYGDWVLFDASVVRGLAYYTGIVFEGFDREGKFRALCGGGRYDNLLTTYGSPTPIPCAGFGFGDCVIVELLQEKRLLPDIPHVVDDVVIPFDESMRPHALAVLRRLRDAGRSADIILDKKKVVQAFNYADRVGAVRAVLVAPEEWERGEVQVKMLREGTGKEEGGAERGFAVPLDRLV
UniProt A4I591, 1-473: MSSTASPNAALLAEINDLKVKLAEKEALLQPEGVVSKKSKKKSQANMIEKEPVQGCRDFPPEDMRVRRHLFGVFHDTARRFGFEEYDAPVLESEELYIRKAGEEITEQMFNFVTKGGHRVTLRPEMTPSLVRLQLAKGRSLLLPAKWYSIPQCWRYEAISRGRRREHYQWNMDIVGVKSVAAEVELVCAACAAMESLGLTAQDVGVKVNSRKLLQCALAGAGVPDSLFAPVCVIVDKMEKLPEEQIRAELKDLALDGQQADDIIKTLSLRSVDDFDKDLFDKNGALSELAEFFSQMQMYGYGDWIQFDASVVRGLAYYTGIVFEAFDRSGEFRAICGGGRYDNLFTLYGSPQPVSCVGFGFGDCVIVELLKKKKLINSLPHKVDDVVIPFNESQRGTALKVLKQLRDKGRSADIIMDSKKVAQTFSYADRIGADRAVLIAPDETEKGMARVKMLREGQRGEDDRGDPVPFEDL

Data taken from ChEMBL document CHEMBL3988442, “University of Dundee, Small-Polar-MMV Screening Library” (2021).

The filed quantity is “Percent Effect” (%).
How 0% and 100% were set is not recorded. Most values in the screen are low, and negative values occur.
Compounds were drawn at random from those tested, without regard to their results.

TcHisRS: 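Enzyme assay of histidyl-tRNA synthetase; the read-out is not stated. Target: Histidine-tRNA ligase, Trypanosoma cruzi CL Brener (UniProt Q4DA54). Tested at 30 µM. Direction is inferred from retests: higher values go with stronger inhibition. Size under these conditions: about 69,000 compounds, about 31 of them at 50% or above in at least one test.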
LiHisRS: 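Histidine-tRNA ligase, Leishmania infantum (UniProt A4I591). Enzyme assay of histidyl-tRNA synthetase; the read-out is not stated. Tested at 30 µM. The record gives no direction; compounds that gave an IC50 in retests scored well above the rest, so higher reads as stronger inhibition. The assay is labelled LdHisRS but filed under L. infantum. Size under these conditions: about 69,000 compounds, about 410 of them at 50% or above in at least one test.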

| # | compound | TcHisRS | LiHisRS |
|---|---|---|---|
| 1 | `CCSc1nc(N)c(NC(=O)c2ccc(C)cc2)c(=O)[nH]1` | 1.031 | 15.65 |
| 2 | `COCCN(C)C(C(=O)O)c1ccc2ccccc2c1` (stereo not drawn) | 5.263 | 11.29 |
| 3 | `Cc1noc(NCc2ccc(F)cc2)n1` | 0.5128 | 4.762 |
| 4 | `CC1CCN(C(=O)c2ccn(COc3ccccc3)n2)CC1` | 1.739 | 10.34 |
| 5 | `CN(CC(=O)N1CCOC(CCc2ccccc2)C1)Cc1ccccn1` (stereo not drawn) | 6.438 | 4.918 |
| 6 | `CCc1ccc(CN2CCc3ncnc(N4CCOCC4)c3CC2)o1` | 6.452 | 8.772 |
| 7 | `CCn1cc(CN2CCCN(C(=O)c3ccc(C#N)cc3)CC2)cn1` | 6.857 | 15.25 |
| 8 | `CN1CCN(C(=O)c2cccc(S(=O)(=O)NCC3(C)COC3)c2)CC1` | 3.59 | 9.524 |
| 9 | `CN(C)CCNC(=O)c1nc2c(s1)CCCN2C(=O)C1CC1` | 1.105 | 6.306 |
| 10 | `CCc1nc(-c2cncnc2C2CCCNC2)no1` (stereo not drawn) | 4.545 | 9.859 |
| 11 | `CC(C)C1CN(S(C)(=O)=O)CCCN1Cc1ccc(F)cc1` (stereo not drawn) | 9.36 | 11.84 |
| 12 | `CCn1ncnc1CN1CCc2[nH]cnc2C1c1ccccn1` (stereo not drawn) | -1.63 | 24 |
| 13 | `CC(C)c1nn(C)c(N(C)C)c1CNCc1cccnc1N(C)C` | 9.412 | 22.02 |
| 14 | `C1CC(c2noc(C3CC3)n2)N(Cc2nnc(C3CC3)o2)C1` (stereo not drawn) | 4.956 | 1.835 |
| 15 | `CNS(=O)(=O)CC1CCCN1c1ccc(Br)cn1` (stereo not drawn) | 10.16 | 7.853 |
| 16 | `O=C1CCSCC(C(=O)N2CCN(C3CCCCC3)CC2)N1` (stereo not drawn) | 4.959 | 17.31 |
| 17 | `CC(C)n1cc(C(=O)N2CCC(n3cc(C(C)(C)C)nn3)CC2)cn1` | 5.202 | 14.89 |
| 18 | `Cc1noc(C)c1S(=O)(=O)N1CCC(Oc2cccnn2)CC1` | -1.031 | -1.739 |
| 19 | `CCc1ccc(C(COC)NC(=O)c2ccc(O)nc2)o1` (stereo not drawn) | 8.108 | 6.838 |
| 20 | `COc1ccc(C(=O)NCC(c2cccn2C)N2CCCC2)c(OC)c1` (stereo not drawn) | 4.348 | 18.45 |
| 21 | `Oc1nc(N2CCOCC2)nc2c1CCN(Cc1ccccc1)CC2` | 10 | 12.37 |
| 22 | `COCCC(C)NC(=O)N1CCC(n2ccc(C(F)(F)F)n2)CC1` (stereo not drawn) | 4.294 | 24.69 |
| 23 | `COCc1ncc(-c2nccn2CCn2cnnc2)cn1` | 14 | 26.53 |
| 24 | `O=C(NCCN1CCOCC1)c1cc(-c2ccc(Cl)s2)[nH]n1` | 1.622 | 27.4 |
| 25 | `Cc1cc(F)ccc1-c1ccccc1CC1CNCCNC1=O` (stereo not drawn) | 11.36 | 8.451 |
| 26 | `CSCC(C)(O)CNS(=O)(=O)c1cccc(Cl)c1` (stereo not drawn) | 2.646 | 12 |
| 27 | `CC(=O)NC(C)C1=CCCN(Cc2ccc(C(=O)O)cc2)C1` (stereo not drawn) | 0 | 11.2 |
| 28 | `CC(=O)NCCc1cc(N2CCN(C(C)=O)CC2)nc(C2CC2)n1` | 8.108 | 0 |
| 29 | `Cc1noc(C)c1C(=O)N(C)C(C)c1cccnc1` (stereo not drawn) | 8.333 | 12.4 |
| 30 | `CN(C)C(=O)[C@H]1CCS(=O)(=O)[C@@H]2CN(c3ncccn3)C[C@H]12` | 8.543 | 15.84 |
| 31 | `CCN(Cc1cccc(Cl)c1)Cc1nc2c(cnn2C)c(=O)[nH]1` | -2.642 | 13.33 |
| 32 | `O=C(c1ccc(F)c(F)c1)N1CCCSCC1CN1CCCC1` (stereo not drawn) | 9.783 | 26.21 |
| 33 | `Cc1nc(C)n(CC2CN(CCn3cccn3)CCO2)n1` (stereo not drawn) | 1.031 | 9.677 |
| 34 | `Cc1ccc(S(=O)(=O)N2CCN(C)c3ccncc32)cc1F` | 10.88 | 17.2 |
| 35 | `CN1CC(=O)N(c2ccccc2)Cc2c(NC3CC3)ncnc21` | 2.959 | 11.03 |
| 36 | `CC(C)NC(=O)N1CCCC2(CCN(c3ccccc3)C2=O)C1` (stereo not drawn) | 4.854 | 7.692 |
| 37 | `CCN(CC)CCCNC(=O)Nc1c(C)cccc1C(C)C` | 6.957 | 13.33 |
| 38 | `COc1ccc(C(=O)N2CCCC2c2noc(C(C)C)n2)nn1` (stereo not drawn) | 4.373 | 9.174 |
| 39 | `COc1cccc(CNCc2ccccc2Cl)c1O` | 7.772 | 16.85 |
| 40 | `CC(C)CN1C[C@H](COCc2ccccc2)Oc2ncccc2C1=O` | -1.124 | 16.33 |
| 41 | `Cn1nnnc1SCc1cc2c(cc1Cl)OCO2` | 1.98 | 13.04 |
| 42 | `COc1cccc2c1ccn2CCC(=O)N1CCC(C(=O)O)CC1` | 6.098 | 21.05 |
| 43 | `O=C(CCc1ccc(-n2cnnn2)cc1)Nc1nncs1` | 6 | 17.39 |
| 44 | `Cc1cccc(C2CCCN(C(=O)CN3CCC(C(N)=O)CC3)C2)c1` (stereo not drawn) | 7.792 | 16.67 |
| 45 | `CN(C)C(=O)N1Cc2ncn(C)c2C(COCC2CCOCC2)C1` (stereo not drawn) | 2.956 | 5.882 |
| 46 | `CCNC(=O)C1CCN(c2cc(-c3ccccc3)nc3ccnn23)C1` (stereo not drawn) | 3.933 | 20.51 |
| 47 | `Cc1cc(C(F)(F)F)nc(N(C)Cc2c(C)noc2C)n1` | 6.404 | -6.579 |
| 48 | `c1cnn(CC2CCCCN2Cc2cn3ccsc3n2)c1` (stereo not drawn) | 0 | 14.89 |
| 49 | `O=C(CO[C@@H]1CC[C@H]2[C@H]1OCCN2c1ncccn1)N1CCCC1` | 5.376 | 22.81 |
| 50 | `CCCC(=O)N1CCCC(C(=O)c2cnn(-c3ccc(F)cc3)c2N)C1` (stereo not drawn) | 3.788 | 13.04 |
| 51 | `O=C(Nc1nnn[nH]1)c1ccc(I)c(F)c1` | 5.82 | 2.941 |
| 52 | `Cn1cc(Cl)c(C(=O)N2CCc3nc4sccc4c(=O)n3CC2)n1` | -5.323 | 3.448 |
| 53 | `COCCC1(CO)CCCN(C(=O)c2ccc(C(C)C)[nH]c2=O)C1` (stereo not drawn) | -2.299 | -12.82 |
| 54 | `Cc1cnn(CC2CN(CC(=O)Nc3nccs3)CCO2)c1` (stereo not drawn) | 7.059 | 16.51 |
| 55 | `CCOc1ccc(S(=O)(=O)NC(=O)CC2CCCO2)cc1` (stereo not drawn) | 2.035 | -13.16 |

The last 3 entries again:

- COCCC1(CO)CCCN(C(=O)c2ccc(C(C)C)[nH]c2=O)C1 (stereo not drawn) | TcHisRS: -2.299%; LiHisRS: -12.82%
- Cc1cnn(CC2CN(CC(=O)Nc3nccs3)CCO2)c1 (stereo not drawn) | TcHisRS: 7.059%; LiHisRS: 16.51%
- CCOc1ccc(S(=O)(=O)NC(=O)CC2CCCO2)cc1 (stereo not drawn) | TcHisRS: 2.035%; LiHisRS: -13.16%